Measured values published in PubChem BioAssay AID248 (DTP/NCI, 2004).
The list does not hold the whole screen: it is rich in T/C values a quarter to a half above the control, in often repeated tests (any T/C) and in doses without a T/C. Other doses and runs of a compound stand elsewhere. T/C gives the treated animals as a percentage of the vehicle group. Some doses have a count of surviving animals in place of a T/C: the source holds a T/C of zero for them, seemingly a mark for toxic or unscored doses. Some doses without a T/C left all or most animals alive at the check, yet need not have been tolerated: survival well below the control is almost never listed, so the zero probably covers shortened survival too. Counts of survivors are from the toxicity check (mostly the fifth day) where no day follows; animals may have died later. Schedule codes are those of the source, read here as Q, the interval in days (D) or hours (H), X, the number of doses. Some entries were tested several times; their values stand side by side, smallest first. Some schedules carry Z or #; the key to these is not given. Where survival is the endpoint, this PubChem deposit counts one and a half times the control or more as active, and values a quarter to a half above the control carry no call in these data; other NCI protocols may use other cut-offs. Additions like (4×) count equal records among those shown.

System: L1210 leukemia ip in BDF1 mice, survival T/C
Assay: NCI In Vivo Anticancer Drug Screen. Data for tumor model L1210 Leukemia (intraperitoneal) in B6D2F1 (BDF1) mice
Conditions: higher T/C = longer survival
[1] = T/C endpoint: mean survival time, dose: 50.0 mg/kg/injection, schedule: Q04DX002 (ip), vehicle: Klucel (hydroxypropylcellulose) (HPC)
[2] = T/C endpoint: mean survival time, dose: 100.0 mg/kg/injection, schedule: Q04DX002 (ip), vehicle: Klucel (hydroxypropylcellulose) (HPC)
[3] = T/C endpoint: mean survival time, dose: 200.0 mg/kg/injection, schedule: Q04DX002 (ip), vehicle: Klucel (hydroxypropylcellulose) (HPC)
[4] = T/C endpoint: mean survival time, dose: 400.0 mg/kg/injection, schedule: Q04DX002 (ip), vehicle: Klucel (hydroxypropylcellulose) (HPC)
[5] = T/C endpoint: mean survival time, dose: 200.0 mg/kg/injection, schedule: Q01DX009 (ip), vehicle: saline with Tween-80
[6] = T/C endpoint: mean survival time, dose: 300.0 mg/kg/injection, schedule: Q01DX001 (ip), vehicle: saline
[7] = T/C endpoint: mean survival time, dose: 100.0 mg/kg/injection, schedule: Q04DX003 (ip), vehicle: Klucel (hydroxypropylcellulose) (HPC)
[8] = T/C endpoint: mean survival time, dose: 200.0 mg/kg/injection, schedule: Q04DX003 (ip), vehicle: Klucel (hydroxypropylcellulose) (HPC)
[9] = T/C endpoint: mean survival time, dose: 400.0 mg/kg/injection, schedule: Q04DX003 (ip), vehicle: Klucel (hydroxypropylcellulose) (HPC)
[10] = T/C endpoint: mean survival time, dose: 400.0 mg/kg/injection, schedule: Q01DX009 (ip), vehicle: saline with Tween-80
[11] = T/C endpoint: mean survival time, dose: 400.0 mg/kg/injection, schedule: Q01DX009 (ip), vehicle: saline

For `CS(=O)c1nsc(S(C)=O)c1C#N` (stereo not given), the survivor count (T/C endpoint: mean survival time, dose: 25.0 mg/kg/injection, schedule: Q04DX002 (ip), vehicle: Klucel (hydroxypropylcellulose) (HPC)) was 0 of 3, the survivor count [1] was 0 of 3 and the survivor count [2] was 0 of 3. The survivor count [3] was 0 of 3 and the survivor count [4] was 0 of 3.

In the case of `COC(=O)c1ccccc1NC(=O)c1ccccc1C(=O)O`, the survivor count [3] was 3 of 3 and the survivor count [4] was 3 of 3.

`CCOC(=O)c1c(NC(=O)C(F)(F)F)[nH]c(SSc2[nH]c(NC(=O)C(F)(F)F)c(C(=O)OCC)c2C(=O)OCC)c1C(=O)OCC` was tested, and the survivor count [5] was 1 of 6 and the survivor count (T/C endpoint: mean survival time, dose: 400.0 mg/kg/injection, schedule: Q04DX003 (ip), vehicle: saline with Tween-80) was 4 of 6.

With `O=C1OC(=O)C2C3OC(C(Br)C3Br)C12` (stereo not given) the survivor count (T/C endpoint: mean survival time, dose: 200.0 mg/kg/injection, schedule: Q04DX003 (ip), vehicle: saline) was 1 of 6 and the survivor count (T/C endpoint: mean survival time, dose: 400.0 mg/kg/injection, schedule: Q04DX003 (ip), vehicle: saline) was 0 of 6.

For `CCCCCCC(=O)O[C@H]1CC[C@H]2[C@@H]3CCC4=CC(=O)CC[C@]4(C)[C@H]3CC[C@]12C`, the survivor count (T/C endpoint: median survival time, dose: 64.0 mg/kg/injection, schedule: Q04DX024 (ip), vehicle: other) was 6 of 10, the survivor count (T/C endpoint: median survival time, dose: 128.0 mg/kg/injection, schedule: Q01DX008 (ip), vehicle: other) was 5 of 10 and the survivor count (T/C endpoint: median survival time, dose: 128.0 mg/kg/injection, schedule: Q01DX016 (ip), vehicle: other) was 6 of 10. For the same compound, the survivor count (T/C endpoint: median survival time, dose: 256.0 mg/kg/injection, schedule: Q01DX008 (ip), vehicle: other) was 5 of 10, the survivor count (T/C endpoint: median survival time, dose: 512.0 mg/kg/injection, schedule: Q04DX003 (ip), vehicle: other) was 6 of 10 and the survivor count (T/C endpoint: median survival time, dose: 1024.0 mg/kg/injection, schedule: Q01DX001 (ip), vehicle: other) was 0 of 10. For the same compound, the survivor count (T/C endpoint: median survival time, dose: 1024.0 mg/kg/injection, schedule: Q08DX002 (ip), vehicle: other) was 0 of 10 and the survivor count (T/C endpoint: median survival time, dose: 2048.0 mg/kg/injection, schedule: Q01DX001 (ip), vehicle: other) was 0 of 10.

With `CC#CC(=O)O` the survivor count (T/C endpoint: mean survival time, dose: 50.0 mg/kg/injection, schedule: Q01DX009 (ip), vehicle: saline) was 3 of 3 and the survivor count (T/C endpoint: mean survival time, dose: 100.0 mg/kg/injection, schedule: Q01DX009 (ip), vehicle: saline) was 2 of 3.

`NNC(=O)c1ccc[nH]1` was tested, and the survivor count (T/C endpoint: mean survival time, dose: 150.0 mg/kg/injection, schedule: Q01DX001 (ip), vehicle: saline) was 0 of 6 and the survivor count [6] was 0 of 6.

`O=[N+]([O-])c1ccc(Oc2nc(Cl)nc(Oc3ccc([N+](=O)[O-])cc3)n2)cc1` was tested, and the survivor count [7] was 3 of 3, the survivor count [8] was 3 of 3 and the survivor count [9] was 3 of 3.

With `C[N+](C)(C)C1CCCCCCC1` the survivor count [6] was 0 of 6.

With `c1ccc2c(C3=NCCN3)ccc(C3=NCCN3)c2c1` the survivor count (T/C endpoint: mean survival time, dose: 60.0 mg/kg/injection, schedule: Q01DX Z (ip), vehicle: saline) was 1 of 6 and the survivor count (T/C endpoint: mean survival time, dose: 120.0 mg/kg/injection, schedule: Q01DX Z (ip), vehicle: saline) was 0 of 6.

`CCCCCCCCC(=O)N(C(C)C)C(C)C` was tested, and the survivor count (T/C endpoint: mean survival time, dose: 400.0 mg/kg/injection, schedule: Q01DX009 (ip), vehicle: carboxymethylcellulose (CMC)) was 2 of 3.

For `CO[C@@]12[C@H](COC(N)=O)C3=C(C(=O)C(C)=C(NCCO)C3=O)N1C[C@@H]1N[C@@H]12`, the T/C (T/C endpoint: mean survival time, dose: 1.5 mg/kg/injection, schedule: Q01DX009 (ip), vehicle: saline) was 126 % of control, the T/C (T/C endpoint: mean survival time, dose: 2.7 mg/kg/injection, schedule: Q01DX009 (ip), vehicle: saline) was 142 % of control and the T/C (T/C endpoint: mean survival time, dose: 4.5 mg/kg/injection, schedule: Q01DX009 (ip), vehicle: saline) was 131 % of control. The T/C (T/C endpoint: mean survival time, dose: 6.6 mg/kg/injection, schedule: Q01DX001 (ip), vehicle: acetone) was 133 % of control, the T/C (T/C endpoint: mean survival time, dose: 9.9 mg/kg/injection, schedule: Q01DX001 (ip), vehicle: acetone) was 143 % of control and the T/C (T/C endpoint: mean survival time, dose: 15.0 mg/kg/injection, schedule: Q01DX001 (ip), vehicle: acetone) was 148 % of control. For the same compound, the T/C (T/C endpoint: mean survival time, dose: 15.0 mg/kg/injection, schedule: Q01DX001 (ip), vehicle: saline) was 125 % of control, the T/C (T/C endpoint: mean survival time, dose: 22.0 mg/kg/injection, schedule: Q01DX001 (ip), vehicle: acetone) was 143 % of control and the survivor count (T/C endpoint: mean survival time, dose: 50.0 mg/kg/injection, schedule: Q01DX001 (ip), vehicle: acetone) was 6 of 6. For the same compound, the survivor count (T/C endpoint: mean survival time, dose: 75.0 mg/kg/injection, schedule: Q01DX001 (ip), vehicle: acetone) was 1 of 6.

For `Oc1ccccc1C=Nc1ccccc1O.[Cu+2]`, the survivor count (T/C endpoint: mean survival time, dose: 400.0 mg/kg/injection, schedule: Q01DX001 (ip), vehicle: other) was 0 of 6.

For `COC(=O)C1(C)CCCC2c3cc4c(cc3CCC21)C(=O)CC(C)O4` (stereo not given), the survivor count (T/C endpoint: mean survival time, dose: 100.0 mg/kg/injection, schedule: Q01DX001 (ip), vehicle: carboxymethylcellulose (CMC)) was 4 of 4 and the survivor count (T/C endpoint: mean survival time, dose: 200.0 mg/kg/injection, schedule: Q01DX001 (ip), vehicle: carboxymethylcellulose (CMC)) was 4 of 4.

In the case of `CC(=O)[O][Hg][CH]1CCCCC1O` (stereo not given), the survivor count (T/C endpoint: mean survival time, dose: 25.0 mg/kg/injection, schedule: Q01DX009 (ip), vehicle: saline with Tween-80) was 3 of 6 and the survivor count (T/C endpoint: mean survival time, dose: 50.0 mg/kg/injection, schedule: Q01DX009 (ip), vehicle: saline with Tween-80) was 0 of 6.

`N/C(CCl)=N\OC(=O)c1ccccc1` was tested, and the survivor count [2] was 0 of 3, the survivor count [3] was 0 of 3 and the survivor count [4] was 0 of 3.

With `CCCCCC(=O)Oc1c(C(C)CC)cc([N+](=O)[O-])cc1[N+](=O)[O-]` (stereo not given) the survivor count (T/C endpoint: mean survival time, dose: 50.0 mg/kg/injection, schedule: Q04DX002 (ip), vehicle: saline with Tween-80) was 2 of 3, the survivor count (T/C endpoint: mean survival time, dose: 100.0 mg/kg/injection, schedule: Q04DX002 (ip), vehicle: saline with Tween-80) was 0 of 3 and the survivor count (T/C endpoint: mean survival time, dose: 200.0 mg/kg/injection, schedule: Q04DX002 (ip), vehicle: saline with Tween-80) was 0 of 3. The survivor count (T/C endpoint: mean survival time, dose: 400.0 mg/kg/injection, schedule: Q04DX002 (ip), vehicle: saline with Tween-80) was 0 of 3.

`C=C1C(=O)OC2C1CCC(=C)C1CC(O)C(=C)C12` (stereo not given) was tested, and the survivor count (T/C endpoint: mean survival time, dose: 150.0 mg/kg/injection, schedule: Q01DX009 (ip), vehicle: saline with Tween-80) was 0 of 6 and the survivor count (T/C endpoint: mean survival time, dose: 225.0 mg/kg/injection, schedule: Q01DX009 (ip), vehicle: saline with Tween-80) was 0 of 6.

With `CCCC(=O)Nc1cc([N+](=O)[O-])ccc1O` the T/C (T/C endpoint: mean survival time, dose: 100.0 mg/kg/injection, schedule: Q01DX009 (ip), vehicle: saline with Tween-80) was 97, 106 (2×), 108 % of control, the T/C [5] was 95 and 100 % of control and the survivor count [5] was 3 of 3. For the same compound, the survivor count [10] was 0 of 3 and 2 of 6.

`CC(=O)OC(C#N)c1cccc([N+](=O)[O-])c1` (stereo not given) was tested, and the survivor count [1] was 0 of 3, the survivor count [2] was 0 of 3 and the survivor count [3] was 0 of 3. For the same compound, the survivor count [4] was 0 of 3.

With `CC(C)(C)C(O)C1CCCS1(=O)=O` (stereo not given) the survivor count (T/C endpoint: mean survival time, dose: 100.0 mg/kg/injection, schedule: Q01DX001 (ip), vehicle: Klucel (hydroxypropylcellulose) (HPC)) was 0 of 6, the survivor count (T/C endpoint: mean survival time, dose: 200.0 mg/kg/injection, schedule: Q01DX001 (ip), vehicle: Klucel (hydroxypropylcellulose) (HPC)) was 0 of 6 and the survivor count (T/C endpoint: mean survival time, dose: 400.0 mg/kg/injection, schedule: Q01DX001 (ip), vehicle: Klucel (hydroxypropylcellulose) (HPC)) was 0 of 6.

With `ClCCCCOCC1CCCO1` (stereo not given) the survivor count [10] was 5 of 6.

`CCCCCCCCCc1ccc(OP(Oc2ccccc2)Oc2ccc(CCCCCCCCC)cc2)cc1` was tested, and the survivor count [6] was 0 of 6.

In the case of `Cc1ccc(S(C)=O)c(C)c1` (stereo not given), the survivor count [11] was 1 of 6.

`Cc1ccc(NC(N)=S)cc1` was tested, and the survivor count [7] was 4 of 6, the survivor count [8] was 3 of 6 and the survivor count [9] was 0 of 6.

In the case of `CC(C)(O)C(O)c1ccccc1` (stereo not given), the survivor count [11] was 2 of 6.

For `Cc1nccc2c(C(=O)O)c(C(=O)O)[nH]c12`, the survivor count (T/C endpoint: mean survival time, dose: 100.0 mg/kg/injection, schedule: Q01DX001 (ip), vehicle: saline) was 1 of 6, the survivor count (T/C endpoint: mean survival time, dose: 200.0 mg/kg/injection, schedule: Q01DX001 (ip), vehicle: saline) was 1 of 6 and the survivor count (T/C endpoint: mean survival time, dose: 400.0 mg/kg/injection, schedule: Q01DX001 (ip), vehicle: saline) was 0 of 6.
